Results on one sequence are retold here after paper doi:10.1101/2023.05.31.543137.

The exact form of at least one protein or probe is not confirmed. The direction of at least one scale is not stated here. Where a protein sequence is shown, tags need not be part of it.

The series concerns the target T1, FUS (fused in sarcoma) (UniProt P35637).
T1 sequence (looked up, limits assumed): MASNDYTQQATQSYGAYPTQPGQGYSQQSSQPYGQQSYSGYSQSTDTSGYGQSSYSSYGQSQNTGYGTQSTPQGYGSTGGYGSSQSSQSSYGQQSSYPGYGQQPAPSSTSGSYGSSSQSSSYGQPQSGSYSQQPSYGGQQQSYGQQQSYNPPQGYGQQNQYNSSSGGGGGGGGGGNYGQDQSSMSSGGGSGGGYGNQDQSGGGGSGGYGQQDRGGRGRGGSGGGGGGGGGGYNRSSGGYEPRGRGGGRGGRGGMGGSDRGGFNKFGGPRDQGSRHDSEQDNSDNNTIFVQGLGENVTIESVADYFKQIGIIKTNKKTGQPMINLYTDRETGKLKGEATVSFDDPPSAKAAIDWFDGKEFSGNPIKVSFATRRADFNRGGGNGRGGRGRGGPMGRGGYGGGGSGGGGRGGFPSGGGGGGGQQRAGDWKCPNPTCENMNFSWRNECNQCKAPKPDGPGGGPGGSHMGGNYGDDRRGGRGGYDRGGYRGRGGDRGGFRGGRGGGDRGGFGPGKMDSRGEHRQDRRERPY
The series is described as follows: condensate partitioning, two-colour confocal dilute-phase measurement. To be noted: 8% (w/v) PEG 10 kDa, FUS condensates, indirect evidence of interaction, not a Kd.

On to UUGUAUUUUGAGCUAGUUUGGUGAC [GUG aptamer], for which the binding signal (dilute phase fraction of aptamer) was found to be 0.1.
